Measurements from publication PMC11253882.
These are yes or no findings as the source states them, for the method shown. In cells and extracts the contact can be indirect. Some results given as binding are weak or reduced against the parent protein; the word gives no strength.

Amino acid sequences for entries named in this document (tags omitted).
UniProt D4A523: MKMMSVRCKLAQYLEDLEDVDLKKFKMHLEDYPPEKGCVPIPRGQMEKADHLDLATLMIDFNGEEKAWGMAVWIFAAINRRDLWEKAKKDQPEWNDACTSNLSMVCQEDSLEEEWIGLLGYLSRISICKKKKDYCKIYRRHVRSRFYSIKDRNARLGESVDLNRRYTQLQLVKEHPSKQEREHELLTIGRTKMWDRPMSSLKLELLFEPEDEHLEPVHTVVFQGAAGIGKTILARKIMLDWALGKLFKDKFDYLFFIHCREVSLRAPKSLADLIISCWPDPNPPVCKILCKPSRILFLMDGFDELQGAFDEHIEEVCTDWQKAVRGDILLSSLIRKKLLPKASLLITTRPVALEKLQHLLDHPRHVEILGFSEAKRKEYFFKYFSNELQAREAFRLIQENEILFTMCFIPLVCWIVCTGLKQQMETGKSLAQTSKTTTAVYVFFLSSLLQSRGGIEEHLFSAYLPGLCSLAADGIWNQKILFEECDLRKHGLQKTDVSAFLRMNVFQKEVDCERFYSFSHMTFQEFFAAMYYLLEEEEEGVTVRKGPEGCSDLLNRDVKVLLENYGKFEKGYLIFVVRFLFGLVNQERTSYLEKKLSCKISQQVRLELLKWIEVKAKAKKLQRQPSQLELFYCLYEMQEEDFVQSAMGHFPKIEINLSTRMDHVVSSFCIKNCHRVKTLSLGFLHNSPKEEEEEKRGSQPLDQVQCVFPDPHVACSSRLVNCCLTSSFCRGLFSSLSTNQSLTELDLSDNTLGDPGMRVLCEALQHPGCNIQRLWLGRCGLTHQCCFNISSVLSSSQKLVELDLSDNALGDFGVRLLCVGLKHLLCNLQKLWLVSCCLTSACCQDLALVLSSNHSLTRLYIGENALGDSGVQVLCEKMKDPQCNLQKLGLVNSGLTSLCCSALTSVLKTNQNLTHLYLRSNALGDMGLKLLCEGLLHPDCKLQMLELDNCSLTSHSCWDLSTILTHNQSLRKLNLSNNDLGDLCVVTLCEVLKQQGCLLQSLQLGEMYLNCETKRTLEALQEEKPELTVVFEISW

Target: T1, Farnesoid X receptor (FXR) (rat (endogenous in IEC-6)) (UniProt Q62735)
T1 sequence: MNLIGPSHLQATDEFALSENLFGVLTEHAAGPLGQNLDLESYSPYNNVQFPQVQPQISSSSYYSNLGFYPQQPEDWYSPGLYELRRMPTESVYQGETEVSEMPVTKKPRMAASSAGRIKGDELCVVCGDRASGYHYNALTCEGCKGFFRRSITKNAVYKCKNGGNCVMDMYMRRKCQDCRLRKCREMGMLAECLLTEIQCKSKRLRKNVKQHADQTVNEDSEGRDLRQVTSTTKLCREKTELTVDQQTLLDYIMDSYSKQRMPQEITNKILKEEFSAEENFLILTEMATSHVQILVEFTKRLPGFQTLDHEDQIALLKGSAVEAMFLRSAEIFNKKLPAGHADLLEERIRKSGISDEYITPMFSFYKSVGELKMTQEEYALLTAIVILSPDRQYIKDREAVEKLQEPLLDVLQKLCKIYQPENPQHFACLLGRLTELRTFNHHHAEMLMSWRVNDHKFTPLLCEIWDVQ
Test: co-IP; 100 ug of IEC-6 lysate incubated overnight at 4°C with mouse anti-FXR monoclonal, rabbit anti-NLRP3 polyclonal or control IgG; Protein A/G PLUS-Agarose 5 h at 4°C; four washes with PBS; western blot

NLRP3 (from UniProt D4A523 1-1035)
binding: binds
